PubChem BioAssay AID1259405 – NCATS | 2018

- Screen: 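Silenced genes that increase secreted GFP made by CHO cells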 (primary screen)
- Cells: Chinese hamster CHO-K1 ovary cells with stable secreted eGFP expression
- Reagents: single siRNA against mouse genes, 0.8 pmol siRNA per well (2 µl of 400 nM stock)
- Duration: 3 days
- Measurement: 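Per-well intracellular GFP measured by laser scanning cytometry, plus viability from ATP luminescence, each relative to plate median of non-targeting control wells, in %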
- Reading the numbers: GFP, % of control: higher = more GFP per well, higher productivity; viability (ATP), % of control: higher = more viable cells (more ATP)
- Call rule: 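Called active when intracellular GFP, relative to negative control, is at or above 120%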
This is one part, drawn at random, of about 50,000 reagents tested. In the full data, about 4,000 (8%) got an active call. 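Mouse siRNA library applied to hamster cells; one well for each siRNA.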 Reagents against one gene are numbered here.

| target | siRNA no. | GFP, % of control | viability (ATP), % of control | outcome |
| --- | --- | --- | --- | --- |
| Trim47 | 1 | 139 | 106 | active |
| Trim47 | 2 | 122 | 102 | active |
| Trim47 | 3 | 105 | 83.2 | inactive |
| Gabbr1 | 1 | 127 | 103 | active |
| Gabbr1 | 2 | 100 | 69.3 | inactive |
| Gabbr1 | 3 | 69.4 | 65.6 | inactive |
| Slc22a3 | 1 | 102 | 76.9 | inactive |
| Slc22a3 | 2 | 86.2 | 82.1 | inactive |
| Slc22a3 | 3 | 109 | 89.1 | inactive |
| Slc38a4 | 1 | 77.9 | 81.7 | inactive |
| Slc38a4 | 2 | 56.4 | 52 | inactive |
| Slc38a4 | 3 | 81.7 | 93.1 | inactive |
| Ipo11 | 1 | 68.7 | 62.7 | inactive |
| Ipo11 | 2 | 58.9 | 84.6 | inactive |
| Ipo11 | 3 | 65.9 | 63.9 | inactive |
| Gna13 | 1 | 131 | 120 | active |
| Gna13 | 2 | 102 | 90 | inactive |
| Gna13 | 3 | 73 | 60.6 | inactive |
| Srrm2 | 1 | 51.6 | 73.7 | inactive |
| Srrm2 | 2 | 122 | 117 | active |
| Srrm2 | 3 | 100 | 85.8 | inactive |
| Zmym3 | 1 | 139 | 61.2 | active |
| Zmym3 | 2 | 81.8 | 73.1 | inactive |
| Zmym3 | 3 | 96 | 113 | inactive |
| Tsen15 | 1 | 49.8 | 73.2 | inactive |
| Tsen15 | 2 | 83.4 | 76.2 | inactive |
| Tsen15 | 3 | 78.9 | 105 | inactive |
| Aldh3b1 | 1 | 97.7 | 72 | inactive |
| Aldh3b1 | 2 | 117 | 93.2 | inactive |
| Aldh3b1 | 3 | 91.1 | 68.4 | inactive |
| Or4c15 | 1 | 26 | 46.8 | inactive |
| Or4c15 | 2 | 57.4 | 66.8 | inactive |
| Or4c15 | 3 | 61.1 | 77.8 | inactive |
| H6pd | 1 | 101 | 69.3 | inactive |
| H6pd | 2 | 62.7 | 57.1 | inactive |
| H6pd | 3 | 62.7 | 61.7 | inactive |
| Kcnk3 | 1 | 100 | 99.4 | inactive |
| Kcnk3 | 2 | 149 | 87.5 | active |
| Kcnk3 | 3 | 98 | 88.7 | inactive |
| Sh3d19 | 1 | 84.6 | 89.1 | inactive |
| Sh3d19 | 2 | 51.2 | 67 | inactive |
| Sh3d19 | 3 | 62.6 | 78.7 | inactive |
| Efcab7 | 1 | 53.1 | 33.2 | inactive |
| Efcab7 | 2 | 70.9 | 87.9 | inactive |
| Efcab7 | 3 | 111 | 102 | inactive |

Hits (from the list above):
| target | siRNA no. | GFP, % of control | viability (ATP), % of control | outcome |
| --- | --- | --- | --- | --- |
| Trim47 | 1 | 139 | 106 | active |
| Trim47 | 2 | 122 | 102 | active |
| Gabbr1 | 1 | 127 | 103 | active |
| Gna13 | 1 | 131 | 120 | active |
| Srrm2 | 2 | 122 | 117 | active |
| Zmym3 | 1 | 139 | 61.2 | active |
| Kcnk3 | 2 | 149 | 87.5 | active |

The listing continues.
| target | siRNA no. | GFP, % of control | viability (ATP), % of control | outcome |
| --- | --- | --- | --- | --- |
| Thbs2 | 1 | 108 | 120 | inactive |
| Thbs2 | 2 | 39.5 | 48.4 | inactive |
| Armh4 | 1 | 71.7 | 54.4 | inactive |
| Armh4 | 2 | 147 | 108 | active |
| Armh4 | 3 | 111 | 131 | inactive |
| Zfp358 | 1 | 149 | 127 | active |
| Zfp358 | 2 | 67.2 | 67.9 | inactive |
| Zfp358 | 3 | 107 | 124 | inactive |
| Mbd3l2 | 1 | 106 | 94.2 | inactive |
| Mbd3l2 | 2 | 95.4 | 80.6 | inactive |
| Mbd3l2 | 3 | 73 | 65.1 | inactive |
| Klk1b3 | 1 | 93.1 | 95.3 | inactive |
| Klk1b3 | 2 | 61.3 | 45.7 | inactive |
| Klk1b3 | 3 | 44.6 | 44.8 | inactive |
| Trmt2b | 1 | 91.7 | 74.1 | inactive |
| Trmt2b | 2 | 57.5 | 79.4 | inactive |
| Trmt2b | 3 | 69.1 | 77.3 | inactive |
| 4930563M21Rik | 1 | 137 | 104 | active |
| 4930563M21Rik | 2 | 61.1 | 55.8 | inactive |
| 4930563M21Rik | 3 | 75.9 | 69 | inactive |
| Gimap1 | 1 | 76 | 76.6 | inactive |
| Gimap1 | 2 | 97.8 | 70.4 | inactive |
| Gimap1 | 3 | 92.2 | 111 | inactive |
| Tdrd12 | 1 | 72.2 | 47.4 | inactive |
| Tdrd12 | 2 | 71.8 | 68.2 | inactive |
| Tdrd12 | 3 | 156 | 105 | active |
| Snrpd3 | 1 | 138 | 125 | active |
| Snrpd3 | 2 | 49.9 | 62.1 | inactive |
| Orc2 | 1 | 78 | 87.3 | inactive |
| Orc2 | 2 | 96.8 | 95 | inactive |
| Foxj2 | 1 | 120 | 115 | inactive |
| Foxj2 | 2 | 65.4 | 69.3 | inactive |
| Bin1 | 1 | 59.3 | 65.3 | inactive |
| Bin1 | 2 | 39.4 | 26.6 | inactive |
| Bin1 | 3 | 90.5 | 74.5 | inactive |
| Fam20b | 1 | 77.9 | 81.9 | inactive |
| Fam20b | 2 | 60.2 | 35.1 | inactive |
| Fam20b | 3 | 81 | 88.8 | inactive |
| Hyal1 | 1 | 122 | 106 | active |
| Hyal1 | 2 | 71.1 | 73.7 | inactive |
| Hyal1 | 3 | 93.4 | 71.5 | inactive |
